We go through 15 compounds from the supplement of paper PMC4604168 (melanoma cell lines).

The list shows a part of the results. Repeats are few or missing, and single values can be far off.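 Imaging used 1,536-well plates; nuclei positive for cleaved PARP by antibody were divided by total DNA-stained nuclei to yield the apoptosis fraction. Doses for screening kept most cells viable, and cell lines differ markedly in resting and induced cleaved-PARP levels.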

The first assay deals with MZ2-MEL. Put plainly: cleaved PARP positive nuclei fraction relative to DMSO control; melanoma cells; higher = more apoptosis. The following applies: library dose: low library concentration; 72 h.
For the compound `CC(C)C[C@H](NC(=O)[C@H](Cc1ccccc1)NC(=O)c1cnccn1)B(O)O` [Bortezomib] + Cc1cc([N+](=O)[O-])ccc1NS(=O)(=O)c1cc(Cl)ccc1Cl [FH535] (first compound 0.001 µM, partner dose 1 µM), the “cleaved PARP positive nuclei fraction” value was 166%. On to `CC(C)C[C@H](NC(=O)[C@H](Cc1ccccc1)NC(=O)c1cnccn1)B(O)O` [Bortezomib] + O=C(CCCCCCC(=O)Nc1ccccc1)NO [vorinostat] (first compound 0.001 µM, partner dose 0.08 µM), for which the “cleaved PARP positive nuclei fraction” value turned out to be 109%. Still for that read-out and setting: next, `Nc1ncn([C@H]2C[C@H](O)[C@@H](CO)O2)c(=O)n1` [decitabine] + COc1ccc2c(c1)CCC1C2CCC2(C)C(NCCCCCCN3C(=O)C=CC3=O)CCC12 [U73122] (first compound 0.1 µM, partner dose 0.4 µM): 145%.

In a further assay the test system is MeWo. Described as above. The following applies: library dose: low library concentration; 72 h.
For `Nc1ncn([C@H]2C[C@H](O)[C@@H](CO)O2)c(=O)n1` [decitabine] + COc1ccc(-c2ccc3c(N4CCOCC4)nc(N4C[C@@H](C)O[C@@H](C)C4)nc3n2)cc1CO [KU0063794] (first compound 0.1 µM, partner dose 0.02 µM), the “cleaved PARP positive nuclei fraction” value turned out to be 121%. On the same count and under the same terms, then `CS(=O)(=O)CCNCc1ccc(-c2ccc3ncnc(Nc4ccc(OCc5cccc(F)c5)c(Cl)c4)c3c2)o1` [lapatinib] + O=S(=O)(c1ccccc1)N(CC(F)(F)F)c1ccc(C(O)(C(F)(F)F)C(F)(F)F)cc1 [T0901317] (first compound 0.8 µM, partner dose 1.4 µM), with 69.3%; and `Nc1ccn([C@@H]2O[C@H](CO)[C@@H](O)C2(F)F)c(=O)n1` [gemcitabine] + CC1(C)NC(=O)N(c2ccc([N+](=O)[O-])c(C(F)(F)F)c2)C1=O [nilutamide] (first compound 0.0004 µM, partner dose 1 µM), with 42.3%; and `CCCS(=O)(=O)Nc1ccc(F)c(C(=O)c2c[nH]c3ncc(Cl)cc23)c1F` + O=C1NC(=O)/C(=C/c2ccc(-c3ccc(F)cc3O)o2)S1 [AS252424] (first compound 0.08 µM, partner dose 1 µM), with 203%. Still for that read-out and setting: then `CNC(=O)c1cc(Oc2ccc(NC(=O)Nc3ccc(Cl)c(C(F)(F)F)c3)cc2)ccn1` [sorafenib] + C[C@@H]1CCN(C(=O)CC#N)C[C@@H]1N(C)c1ncnc2[nH]ccc12 [CP690550] (first compound 0.4 µM, partner dose 1 µM), with 56.8%. In the case of `Cc1cc(Nc2cc(N3CCN(C)CC3)nc(/C=C/c3ccccc3)n2)n[nH]1` + CN(C)S(=O)(=O)c1ccc2c(c1)/C(=C/c1cc3c([nH]1)CCCC3)C(=O)N2 [SU6656] (first compound 0.04 µM, partner dose 0.4 µM), the “cleaved PARP positive nuclei fraction” value was 231%.

As to `Nc1ncn([C@H]2C[C@H](O)[C@@H](CO)O2)c(=O)n1` [decitabine] + CCCCCCCCCCCC1=C(O)C(=O)C=C(O)C1=O [Embelin] (first compound 0.1 µM, partner dose 1.2 µM), the “cleaved PARP positive nuclei fraction” value amounted to 59.4%.

For `Nc1nc(F)nc2c1ncn2[C@@H]1O[C@H](CO)[C@@H](O)[C@@H]1O` [fludarabine] + CCCCCCCCCCCC1=C(O)C(=O)C=C(O)C1=O [Embelin] (first compound 0.2 µM, partner dose 1.2 µM), the “cleaved PARP positive nuclei fraction” value was found to be 194%. For the compound `O=C(O)c1ccc2c(c1)nc(Nc1cccc(Cl)c1)c1ccncc12` + COc1ccc2c(c1)CCC1C2CCC2(C)C(NCCCCCCN3C(=O)C=CC3=O)CCC12 [U73122] (first compound 0.4 µM, partner dose 0.4 µM), the “cleaved PARP positive nuclei fraction” value amounted to 86.2%. On the same count and under the same terms, then `Nc1ccn([C@@H]2O[C@H](CO)[C@@H](O)C2(F)F)c(=O)n1` [gemcitabine] + CO[C@@H]1[C@H](N(C)C(=O)c2ccccc2)C[C@H]2O[C@]1(C)n1c3ccccc3c3c4c(c5c6ccccc6n2c5c31)C(=O)NC4 [Midostaurin] (first compound 0.0004 µM, partner dose 0.08 µM), with 225%; and `CN1CCN(c2ccc3nc(-c4c(N)c5c(F)cccc5[nH]c4=O)[nH]c3c2)CC1` [Dovitinib] + O=C(O)C(=O)Nc1sc2c(c1C(=O)O)CCNC2 [TCS401] (first compound 0.1 µM, partner dose 1.66667 µM), with 92.3%.

On to `Nc1ncn([C@H]2C[C@H](O)[C@@H](CO)O2)c(=O)n1` [decitabine] + COC(=O)c1sccc1S(=O)(=O)Nc1ccc(Nc2ccccc2)cc1OC [GSK0660] (first compound 0.1 µM, partner dose 1 µM), for which the “cleaved PARP positive nuclei fraction” value is 80.5%.
